Here are results for one molecule from paper PMC3795569, “Crystal structure of the N-terminal domain of MinC dimerized via domain swapping” (Journal of Synchrotron Radiation, 2013).

These are yes or no findings as the source states them, for the method shown. In cells and extracts the contact can be indirect. Some results given as binding are weak or reduced against the parent protein; the word gives no strength.

The experiment concerns the target Escherichia coli MinC (EcoMinC) (Escherichia coli) (UniProt P18196). The experiment in a line: cross-linking; chemical crosslinking of EcoMinC at a high concentration; data not shown.

B1: Escherichia coli MinC (EcoMinC) (protein, UniProt P18196 1-231)
chain: MSNTPIELKGSSFTLSVVHLHEAEPKVIHQALEDKIAQAPAFLKHAPVVLNVSALEDPVNWSAMHKAVSATGLRVIGVSGCKDAQLKAEIEKMGLPILTEGKEKAPRPAPTPQAPAQNTTPVTKTRLIDTPVRSGQRIYAPQCDLIVTSHVSAGAELIADGNIHVYGMMRGRALAGASGDRETQIFCTNLMAELVSIAGEYWLSDQIPAEFYGKAARLQLVENALTVQPLN
In the case of B1, the binding result is “binds”.
